Reference: PubChem BioAssay AID1259424 (University of Nebraska Medical Center, 2018)

Test: 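Find knockdowns that reproduce the expression shifts seen after KSR1 loss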 (primary screen)
Cell system: human HCT116 colon cancer cells
Knock-down reagent: siRNA pool against human genes, 50 nM
Measurement: 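Six signature mRNAs by branched-DNA multiplex assay, scaled to two housekeeping genes and non-targeting median, log2; matched to mean KSR1 knockdown profile by Pearson correlation and euclidean distance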
Scale: mean correlation with KSR1 profile and KSR1 correlation: higher = expression change more like KSR1 knockdown; mean distance from KSR1 profile: higher = expression change less like KSR1 knockdown
Shown is an unselected part of about 14,000 reagents tested. 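Higher correlation or smaller distance means closer resemblance to KSR1 loss; control wells, including KSR1 knockdowns, recur on many plates.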 Reagent sequences are not shown. Not given: the time to read-out.

The first 2 entries as a preview:
gene symbol	mean correlation with KSR1 profile	mean distance from KSR1 profile	KSR1 correlation, replicate 1	KSR1 correlation, replicate 2	KSR1 correlation, replicate 3
CDK5 (GeneID 1020)	0.108	2.17	0.136	0.0925	-0.294
INO80 (GeneID 54617)	-0.586	2.75	-0.697	-0.636	-0.651

The listing, from the first entry:
gene symbol	mean correlation with KSR1 profile	mean distance from KSR1 profile	KSR1 correlation, replicate 1	KSR1 correlation, replicate 2	KSR1 correlation, replicate 3
CDK5 (GeneID 1020)	0.108	2.17	0.136	0.0925	-0.294
INO80 (GeneID 54617)	-0.586	2.75	-0.697	-0.636	-0.651
AIMP1 (GeneID 9255)	0.325	2.62	0.392	0.344	0.185
GYPA (GeneID 2993)	-0.124	1.66	-0.208	-0.283	-0.17
AACS (GeneID 65985)	0.11	1.44	0.41	-0.00305	-0.0399
CERT1 (GeneID 10087)	-0.188	2.64	-0.0479	-0.243	-0.502
FXYD7 (GeneID 53822)	-0.023	2.61	-0.0375	0.135	-0.00429
FAM184B (GeneID 27146)	0.306	0.942	0.018	-0.362	0.142
TMED10 (GeneID 10972)	-0.354	4.8	-0.361	-0.315	-0.304
RLIM (GeneID 51132)	0.161	1.29	0.15	0.353	0.212
MGAT2 (GeneID 4247)	-0.42	3.04	-0.433	-0.556	-0.293
MED9 (GeneID 55090)	-0.0495	1.92	0.021	-0.135	-0.12
AHCYL1 (GeneID 10768)	0.108	3.03	0.0428	0.0777	0.314
SLC20A1 (GeneID 6574)	0.485	2.11	0.456	0.452	0.508
OR13A1 (GeneID 79290)	0.776	0.916	0.854	0.834	0.606
DNM1 (GeneID 1759)	0.368	2.86	0.0808	0.528	0.113
RPL13A (GeneID 23521)	-0.0964	1.84	-0.201	0.0429	0.0207
THOC7 (GeneID 80145)	0.245	1.44	0.107	0.184	-0.189
SEPTIN4 (GeneID 5414)	-0.214	4.11	-0.139	-0.222	-0.425
RIT2 (GeneID 6014)	0.499	0.971	0.0389	0.714	0.727
NRN1 (GeneID 51299)	-0.403	2.28	-0.255	-0.399	-0.313
GRIK2 (GeneID 2898)	-0.37	1.93	-0.207	-0.298	-0.806
TFPI2 (GeneID 7980)	-0.31	3.1	-0.227	-0.368	-0.353
DPP7 (GeneID 29952)	0.473	2.85	0.542	0.281	0.234
ZMIZ2 (GeneID 83637)	0.397	1.89	0.275	0.375	0.343
PAQR5 (GeneID 54852)	-0.441	2.64	-0.431	-0.776	-0.558
UBE2A (GeneID 7319)	0.28	1.91	0.258	0.265	0.269
ATAD1 (GeneID 84896)	-0.215	2.73	-0.287	-0.18	-0.317
NKAPD1 (GeneID 55216)	-0.514	2.29	-0.457	-0.59	-0.537
NPTXR (GeneID 23467)	0.386	2.65	0.287	0.254	0.43
SLC1A3 (GeneID 6507)	-0.732	1.55	-0.603	-0.773	-0.36
HEATR5B (GeneID 54497)	-0.876	3	-0.838	-0.895	-0.786
COX5B (GeneID 1329)	-0.195	1.37	-0.089	-0.369	-0.272
POLR2F (GeneID 5435)	-0.224	2.18	0.0991	-0.0198	-0.676
RDH16 (GeneID 8608)	-0.21	2.48	-0.235	-0.316	0.0396
OCIAD1 (GeneID 54940)	-0.347	3.36	-0.0733	-0.575	-0.179
SLC39A2 (GeneID 29986)	-0.207	2.05	-0.582	-0.286	-0.569
RBM3 (GeneID 5935)	-0.327	3.8	-0.316	-0.4	-0.228
CHRNA7 (GeneID 1139)	0.341	3.62	0.502	0.178	0.21
MRNIP (GeneID 51149)	-0.267	3.7	-0.199	-0.25	-0.201
OR1F1 (GeneID 4992)	0.757	1.21	0.814	0.91	0.169
AFDN (GeneID 4301)	0.271	1.83	0.0779	0.13	0.325
GPATCH2L (GeneID 55668)	-0.118	2.18	-0.111	-0.0644	-0.241
GNG13 (GeneID 51764)	0.224	1.86	0.203	0.494	-0.0104
ELOVL3 (GeneID 83401)	0.27	1.58	0.13	0.358	-0.271
LRTM1 (GeneID 57408)	-0.201	5.12	-0.363	0.164	0.0753
PPP1R12B (GeneID 4660)	-0.375	2.25	-0.379	-0.202	-0.467
TMEM94 (GeneID 9772)	-0.136	3.02	0.0918	-0.291	-0.019
RBM39 (GeneID 9584)	-0.636	2.41	-0.451	-0.51	-0.649
BLTP1 (GeneID 84162)	0.528	1.85	0.429	0.417	0.565
RPS29 (GeneID 6235)	-0.49	4.22	-0.362	-0.424	-0.545
GPR171 (GeneID 29909)	0.711	2.12	0.515	0.703	0.704
SLC2A9 (GeneID 56606)	-0.616	1.92	-0.0555	-0.63	-0.721
MSLN (GeneID 10232)	-0.133	1.8	-0.037	-0.0866	-0.396
SFPQ (GeneID 6421)	0.22	2.53	0.202	0.179	0.138
PFDN5 (GeneID 5204)	-0.135	3.23	-0.19	0.246	0.0786
WEE1 (GeneID 7465)	-0.177	2.12	-0.129	-0.0491	-0.33
CLPP (GeneID 8192)	-0.0443	2.51	-0.0914	0.272	0.193
NKIRAS1 (GeneID 28512)	-0.123	3.12	0.00565	-0.187	-0.428
RSAD1 (GeneID 55316)	-0.368	2.86	-0.257	-0.23	-0.391
ENDOD1 (GeneID 23052)	-0.242	2.28	-0.0622	-0.565	-0.0522
CCL13 (GeneID 6357)	-0.419	1.27	-0.308	-0.713	-0.0865
YWHAQ (GeneID 10971)	-0.0814	2.68	0.216	0.0355	-0.445
